According to PubChem BioAssay AID504834 (National Center for Advancing Translational Sciences (NCATS), 2011):
Where “and” joins values, the source holds several entries; their conditions need not be identical. Identical values can stand only once. The campaign covered roughly 320,000 compounds. About 22,000 (6.9%) were called active. This list was built around the results that the source calls inconclusive (neither active nor inactive); the mix of calls is not that of the screen. Calls follow the shape of the dose curve; as a rule, active = well fitted inhibition curve with a large enough effect; inconclusive = small, poorly fitted or top-dose-only effect, or another doubt; inactive = no such curve, though single readings can be large or run the other way. Potencies beside an inconclusive call are fits to weak or partial responses and may not hold up.
% is scaled to controls: 0 for no effect and ±100 for the full control effect; potency is read from the fitted curve at half-maximal effect.

Assay: Primary qHTS for delayed death inhibitors of the malarial parasite plastid, 96 hour incubation
Settings: P. falciparum luciferase reporter growth; series mostly up to 28.7 µM; activity change, negative = inhibition: at the top concentration
Outline: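 P. falciparum expressing integrated firefly luciferase, in erythrocytes at 2% hematocrit, 0.05% parasitemia, incubated with compounds 96 h at 37 C, 5% CO2. Growth inhibition read as loss of luminescence; two-generation exposure targets delayed-death apicoplast inhibitors.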
With `CCCc1cc(C(=O)NC(C)C2CCCO2)cs1` (configuration not stated) the “activity change, negative = inhibition” value was inactive: 21.9%. With `CC(C)NC(=O)c1ccc2c3n(nc2c1)-c1ccc(Cl)cc1CO3` the “activity change, negative = inhibition” value was inactive: 215%. With `CCN1C(=O)[C@H]2[C@@H](c3ccc(C)cc3)N3C(=O)N(c4cccc(F)c4)C(=O)[C@@]3(Cc3ccc(Cl)cc3)[C@H]2C1=O` the Potency was inconclusive: 18.5 µM [inhibitor, single point]. For `CCN(CC)CCOc1ccc2c(c1)C(=NNC(=O)c1ccccn1)c1cc(OCCN(CC)CC)ccc1-2`, the Potency was inconclusive: 0.329 µM [inhibitor, full curve, poor fit]. In the case of `CCOP(=O)(OCC)C(Nc1ccccc1)c1ccccc1C(F)(F)F` (configuration not stated), the “activity change, negative = inhibition” value was inactive: -19.2%. With `CC(=O)Nc1cccc(/C(C)=N/Nc2nc3ccccc3s2)c1` the “activity change, negative = inhibition” value was inactive: 32.9%. In the case of `Cc1ccc(NC(=O)Nc2ccc(F)cc2)cc1Cl`, the Potency was inconclusive: 10.4 µM [inhibitor, partial curve, poor fit]. In the case of `CCOC(=O)N/N=C\C=C\c1ccco1`, the Potency was inconclusive: 11.7 µM [inhibitor, partial curve]. For `Cc1ccc2[nH]c(C)c(CCNC(=O)NC3CCCCC3)c2c1`, the Potency was active: 1.47 µM. With `Nc1cc(C(=O)O)c(N)c2c1C(=O)c1ccccc1C2=O` the Potency was inconclusive: 6.57 µM [inhibitor, partial curve]. In the case of `Cn1c(Cn2c(=O)sc3ccccc32)nnc1SCC(=O)N1CCc2ccccc21`, the Potency was active: 5.22 µM. In the case of `O=C(CSc1ccc(-c2cccc([N+](=O)[O-])c2)nn1)NC1CCCC1`, the Potency was inconclusive: 0.0657 µM [inhibitor, full curve, poor fit]. In the case of `O=C(CCC1CCCCC1)NCCN1C2=NC[C@H](Cc3ccccc3)N2C[C@H]1Cc1ccc(O)cc1`, the Potency was active: 4.65 µM. With `Cc1c2cnn(CC(=O)NCCCN3CCCCC3C)c(=O)c2c(C)n1Cc1ccccc1` (configuration not stated) the Potency was inconclusive: 20.8 µM [inhibitor, partial curve, poor fit]. In the case of `O=C(c1sc2ccccc2c1Cl)N(Cc1ccco1)C1CCS(=O)(=O)C1` (configuration not stated), the “activity change, negative = inhibition” value was inactive: 71%. With `CCOC(=O)c1ccccc1NC(=O)c1ccc2nccnc2c1` the Potency was inconclusive: 10.4 µM [inhibitor, partial curve]. For `CC(=O)Nc1ccc(/C=N\NC(=O)CNS(=O)(=O)c2ccc([N+](=O)[O-])cc2)cc1`, the Potency was inconclusive: 14.7 µM [inhibitor, single point]. For `CCN(c1ccccc1)S(=O)(=O)c1ccc(C(=O)N(C)CCc2ccc(OC)c(OC)c2)cc1`, the Potency was inconclusive: 13.1 µM [inhibitor, partial curve, poor fit]. For `Cc1ccc(NC(=O)CNCC2CCCCC2)cc1S(=O)(=O)N(C)C`, the Potency was inconclusive: 10.4 µM [inhibitor, partial curve, poor fit]. In the case of `CN(C)CCNS(=O)(=O)c1ccc(Cl)cc1`, the Potency was inconclusive: 11.7 µM [inhibitor, single point]. In the case of `COc1ccc(N2C(=O)C(CC(=O)O)S/C2=N\N=C\c2cccs2)cc1` (configuration not stated), the “activity change, negative = inhibition” value was inactive: 6.43%. With `COC(=O)CCC(=O)OC1(C)C(=O)C=C2C=C(C3CC3)N(c3ccccc3)C=C2C1=O` (configuration not stated) the Potency was inconclusive: 18.5 µM [inhibitor, single point]. In the case of `COc1ccc(CCN(C)C(=S)Nc2cccc(C)c2)cc1OC`, the Potency was inconclusive: 2.62 µM [inhibitor, single point]. In the case of `COc1cccc(OC)c1C(=O)NC(=S)NCc1ccccc1`, the Potency was inconclusive: 2.33 µM [inhibitor, partial curve, poor fit]. In the case of `CCOc1ccc(NC(=O)NNC(=O)c2ccc3ccccc3c2O)cc1`, the “activity change, negative = inhibition” value was inactive: 15.9%. For `CC(=O)C1=C(c2ccccc2)NC(=O)NC1c1ccccc1` (configuration not stated), the Potency was inconclusive: 4.15 µM [inhibitor, single point]. For `COc1ccc(NS(=O)(=O)c2cc(NC(=O)/C=C/c3cccs3)ccc2N2CCOCC2)cc1`, the Potency was active: 7.38 µM. With `COc1ccc(CC(=O)Nc2ccc(OC)c(NC(=O)c3ccco3)c2)cc1` the Potency was inconclusive: 4.15 µM [inhibitor, partial curve, poor fit]. In the case of `CCOc1ccccc1CNCCc1ccc2c(c1)OCO2`, the Potency was inconclusive: 8.28 µM [inhibitor, partial curve, poor fit]. In the case of `Cc1ccccc1-c1nnc(SCC(=O)NCc2ccc3c(c2)OCO3)n1C`, the Potency was inconclusive: 13.1 µM [inhibitor, partial curve, poor fit]. With `O=C(CN1C(=O)C2C3c4ccccc4C(c4ccccc43)C2C1=O)Nc1ccccc1C(=O)O` (configuration not stated) the Potency was inconclusive: 0.465 µM [inhibitor, partial curve, poor fit]. With `COc1ccc(N(CC(=O)NC2CCCCC2C)S(=O)(=O)c2c(C)nn(C)c2C)cc1` (configuration not stated) the Potency was inconclusive: 3.7 µM [inhibitor, full curve, poor fit]. With `COc1ccc(N2CC(C(=O)N/N=C/c3cccs3)CC2=O)cc1` (configuration not stated) the Potency was inconclusive: 0.586 µM [inhibitor, full curve, poor fit]. With `CC(C)(C)c1ccc(C(=O)CC(Sc2ccc(Cl)cc2)C(=O)O)cc1` (configuration not stated) the Potency was inconclusive: 0.037 µM [inhibitor, partial curve, poor fit]. With `Cc1ccc(NC(=O)c2cccs2)cc1NC(=O)c1ccco1` the “activity change, negative = inhibition” value was inactive: 104%. For `CC(C)c1nc(SCC(=O)N2c3ccccc3CC2C)c2ccccc2n1` (configuration not stated), the Potency was inconclusive: 10.4 µM [inhibitor, single point]. With `N#Cc1c(N(CCO)CCO)nc(N)c2c(N)nc3c(c12)CC(=O)N3Cc1cccs1` the Potency was inconclusive: 0.0657 µM [inhibitor, full curve, poor fit]. With `CCN(CC)CCC(=O)N1c2ccccc2Sc2ccc(Cl)cc21` the Potency was active: 3.38 µM and active: 1.65 µM. In the case of `COC(=O)c1ccc2c(=O)n(CCN3CCOCC3)c(SCC(=O)Nc3cccc(OC)c3)nc2c1`, the Potency was active: 13.1 µM. In the case of `CCOC(=O)C1CCN(C(=O)c2n[nH]c(=O)c3ccccc23)CC1`, the Potency was inconclusive: 13.1 µM [inhibitor, single point]. With `Cc1ccc(N(C(=O)Cn2nnc3ccccc32)C(C(=O)NCc2ccccc2)c2ccccn2)cc1` (configuration not stated) the Potency was inconclusive: 10.4 µM [inhibitor, single point]. With `CSc1ccccc1C(=O)OCC(=O)N1CCN(C(C)=O)CC1` the Potency was inconclusive: 18.5 µM [inhibitor, single point]. With `COc1ccc(CCN(C(=O)COc2ccccc2)c2nc(-c3ccccc3)cs2)cc1OC` the Potency was active: 11.7 µM. In the case of `COc1ccc2[nH]c(=O)c(CN(CC3CCCO3)S(=O)(=O)c3ccccc3)cc2c1` (configuration not stated), the Potency was active: 1.65 µM. For `Cc1cccc(CSc2nc3c(c(-c4cccs4)c2C#N)CN(C)CC3)c1`, the Potency was inconclusive: 13.1 µM [inhibitor, single point]. With `COC(=O)c1c(C)[nH]c(C(=O)CSc2ncnc3sc(-c4ccccc4)cc23)c1C` the “activity change, negative = inhibition” value was inactive: 0%. For `O=C(OCC(=O)N1CCCCCC1)c1cnc(Cl)c(Cl)c1`, the Potency was inconclusive: 10.4 µM [inhibitor, partial curve, poor fit]. For `Cc1ccccc1NC(=O)c1c(O)c2cccc3c2n(c1=O)CC3`, the Potency was inconclusive: 8.28 µM [inhibitor, partial curve]. In the case of `CNc1ccc(/C=C/C(=O)c2ccc(C)cc2)cc1[N+](=O)[O-]`, the Potency was active: 11.7 µM. For `CN(C)C1=NC[C@H](Cc2ccccc2)N1CC1CCCCCC1`, the Potency was inconclusive: 18.5 µM [inhibitor, single point]. In the case of `Cc1cc(N(C)Cc2ccccc2)nc(-c2ccccc2)n1`, the “activity change, negative = inhibition” value was inactive: 8.73%. For `COc1ccccc1N(C(C)=O)C1SC(=O)N(c2ccccc2)C1=O` (configuration not stated), the “activity change, negative = inhibition” value was inactive: 2.7%. With `CN(C)c1ccc(/C=N/N=C/c2ccccc2O)cc1` the “activity change, negative = inhibition” value was inactive: 197%. For `CC(C)c1ccc(N=C2N=C(N)c3ccccc32)cc1`, the “activity change, negative = inhibition” value was inactive: 140%. In the case of `CN(C)/C=C(/C(=O)c1ccc(Cl)cc1)S(C)(=O)=O`, the “activity change, negative = inhibition” value was inactive: 19%. With `CCOC(=O)N1CCN(C(=O)c2cc(-n3cnnc3)ccc2Cl)CC1` the “activity change, negative = inhibition” value was inactive: 22.8%. With `CC(Sc1nnc(C2CC2)n1-c1ccccc1)C(=O)N1CCCC1` (configuration not stated) the Potency was inconclusive: 11.7 µM [inhibitor, single point]. With `COc1cc(-c2nnn(CC(=O)NCc3ccccc3)n2)cc(OC)c1OC` the Potency was inconclusive: 9.28 µM [inhibitor, single point]. For `COc1ccc(CN2CCN(c3ccccc3OC)CC2)c(OC)c1`, the “activity change, negative = inhibition” value was inactive: 3.79%. In the case of `Cc1cccn2cc(-c3cc4ccccc4oc3=O)nc12`, the Potency was inconclusive: 4.15 µM [inhibitor, partial curve, poor fit]. In the case of `CC(C)(C)c1ccc(C(=O)Nc2ccc(O)c3c(=O)cc(-c4ccccc4Cl)oc23)cc1`, the Potency was inconclusive: 4.15 µM [inhibitor, partial curve, poor fit]. In the case of `COc1ccccc1CN1CC(C(=O)NCc2cc(C)on2)CCC1=O` (configuration not stated), the Potency was inconclusive: 8.28 µM [inhibitor, partial curve, poor fit]. With `CCCCn1c(=O)[nH]c(=O)c2c1nc(-c1ccc3ccccc3c1)n2CC` the Potency was inconclusive: 10.4 µM [inhibitor, single point]. With `O=C(NNc1ncnc2c1cnn2-c1ccccc1)c1cccs1` the Potency was inconclusive: 10.4 µM [inhibitor, single point]. For `CCc1c(C)nc(SCC(=O)Nc2c(C)n(C)n(-c3ccccc3)c2=O)[nH]c1=O`, the Potency was inconclusive: 2.94 µM [inhibitor, single point]. In the case of `COc1ccc(Cl)cc1S(=O)(=O)N1CCCC(C(=O)N2CCOCC2)C1` (configuration not stated), the Potency was inconclusive: 7.38 µM [inhibitor, partial curve]. In the case of `COc1ccc(OCCCC(=O)N(CCC2=CCCCC2)c2c(N)n(Cc3ccccc3)c(=O)[nH]c2=O)cc1`, the Potency was inconclusive: 18.5 µM [inhibitor, single point].
